Our source for the binding values is article doi:10.1101/756874.

The target of assay [1] is BAK V142C/F150C, disulfide form (human) (UniProt Q16611). In words: SEC.
Assay [2] has as its target BAK A28C/L163C, disulfide form (human) (UniProt Q16611). The assay is described as follows: SEC. Background: SEC sorts molecules by how far they enter the pores of the column.

Results are given in words; binding and its absence hold for the method and conditions named.

B1: BAK V142C/F150C, disulfide form (domain or fragment, UniProt Q16611 16-185)
chain: EPALPSASEEQVAQDTEEVFRSYVFYRHQQEQEAEGVAAPADPEMVTLPLQPSSTMGQVGRQLAIIGDDINRRYDSEFQTMLQHLQPTAENAYEYFTKIATSLFESGINWGRVVALLGFGYRLALHCYQHGLTGCLGQVTRFVVDFMLHHSIARWIAQRGGWVAALNLGN
modifications: disulfide staple between the introduced cysteines 142 and 150
On to B1, for which the binding result in assay [1] is given as “no binding (tested: 20 μM)”.

B2: BAK A28C/L163C, disulfide form (domain or fragment, UniProt Q16611 16-185)
chain: EPALPSASEEQVCQDTEEVFRSYVFYRHQQEQEAEGVAAPADPEMVTLPLQPSSTMGQVGRQLAIIGDDINRRYDSEFQTMLQHLQPTAENAYEYFTKIATSLFESGINWGRVVALLGFGYRLALHVYQHGLTGFLGQVTRFVVDFMCHHSIARWIAQRGGWVAALNLGN
modifications: disulfide staple between the introduced cysteines 28 and 163
Regarding B2, the binding result in assay [2] is “no binding (tested: 20 μM)”.
